# The supplement of paper PMC4371806
# Whole data set: some 1,600 compounds, median “plate-normalized OD600 growth (mean of duplicates)” near 0.31, cut for the lowest 2% near 0.23. This is one part of the list.
# Tested on: Escherichia coli BW25113
# Test: plate-normalized OD600 growth (mean of duplicates) (OD600 (normalized)); higher = more growth (less inhibition)
# Conditions: 10 µM
# Method: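 E. coli BW25113 in LB (100 µl, 96-well, no shaking) was exposed to 10 µM of each compound (here the ChemBridge subset of a ~30,000-member library) and grown at 37°C for 24 h or 15°C for 48 h, in duplicate. Growth was read as OD600 and the duplicate ODs were normalized across screening plates to correct plate-to-plate variation.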
Compound,"plate-normalized OD600 growth (temperature: 15°C, 48 h)","plate-normalized OD600 growth (temperature: 37°C, 24 h)"
CCN1CCN(Cc2ccc(Br)s2)CC1,0.257,0.626
CCN1CCN(Cc2cc(Br)c(O)c(OC)c2)CC1,0.265,0.651
CN1CCCN(Cc2c[nH]c3ccccc23)CC1,0.257,0.639
CC1CN(c2ccc([N+](=O)[O-])c(N3CCOCC3)c2)CCN1 (stereo unspecified),0.258,0.618
CN1CCC(N(C)Cc2cccnc2)CC1,0.247,0.602
Nc1ccc(Oc2ccc(N)cc2)cc1,0.168,0.608
Oc1cccc(CN2CCN(c3ccc(F)cc3)CC2)c1,0.222,0.646
O=C(Cc1ccccc1)N1CCN(Cc2cccc([N+](=O)[O-])c2)CC1,0.259,0.626
CN1C(=O)N(C)C(=O)C(CCc2ccncc2)(CCc2ccncc2)C1=O,0.266,0.631
COc1cccc(CN2CCN(c3ccccc3)CC2)c1,0.252,0.608
COc1ccc(CCNC2CCCCC2)cc1,0.237,0.602
C/C=C(\C)CN(C)CCc1ccccn1,0.251,0.626
O=[N+]([O-])c1ccc(N2CCN(Cc3ccc(F)c(Br)c3)CC2)cc1,0.257,0.638
CC(=O)c1ccc(N2CCN(Cc3cccc(Cl)c3)CC2)cc1,0.239,0.643
CCN1CCN(CC(c2ccccc2)c2ccccc2)CC1,0.251,0.613
CCN1CCN(Cc2ccc(OC)c(C)c2)CC1,0.261,0.606
Clc1cccc(N2CCN(Cc3ccc4c(c3)OCO4)CC2)c1,0.275,0.647
CCC(N)C(=O)c1ccc(Br)cc1 (stereo unspecified),0.219,0.624
CCOc1ccccc1N1CCN(Cc2cccnc2)CC1,0.233,0.625
COc1ccc(CN2C(=O)CC(=O)NC2=O)cc1,0.265,0.633
CN1C(=O)C(C2(C#N)CCCCC2)C(=O)N(C)C1=O,0.264,0.635

Compound,"plate-normalized OD600 growth (temperature: 15°C, 48 h)","plate-normalized OD600 growth (temperature: 37°C, 24 h)"
OC1CCN(Cc2c[nH]c3ccccc23)CC1,0.241,0.615
O=C1CC(=O)N(c2ccccc2)C(=O)N1,0.252,0.62
COc1ccc(CNCCc2cccc(Cl)c2)cc1,0.243,0.605
CCN1CCN(Cc2cccs2)CC1,0.24,0.605
OC(Cc1ccncc1)C(Cl)(Cl)Cl (stereo unspecified),0.247,0.61
Oc1cccc(CN2CCN(c3ccccc3Cl)CC2)c1,0.26,0.611
COc1ccc(C2(CN)CCCC2)cc1OC,0.258,0.615
Cc1ccc(-c2nc3ccccc3c(=O)n2-c2cccc(O)c2)cc1,0.247,0.61
c1ccc(CN2CCN(C3CCCCC3)CC2)cc1,0.26,0.617
COc1cc(Cc2ccc(N)c(OC)c2)ccc1N,0.255,0.625
c1ccc(CCNCc2ccco2)cc1,0.247,0.609
Cc1cccc(CN2C[C@@H]3C[C@@H](C2)c2cccc(=O)n2C3)c1,0.283,0.635
[O-][n+]1onc2c1CCC1N(O)CCC21O (stereo unspecified),0.285,0.651
O=c1cccc2n1C[C@H]1C[C@H]2CN(Cc2c(Cl)cccc2Cl)C1,0.284,0.625
O=C1NC(=O)C(Cc2ccc(F)cc2)C(=O)N1,0.271,0.632
COc1ccc(N2CCN(Cc3ccc(OC)c(C)c3)CC2)cc1,0.242,0.598
Cc1ccc2c(c1)c(=O)c1c3n2CCN(CC#N)C3CC1 (stereo unspecified),0.254,0.617
CCCN1CCC(NC2CCC(O)CC2)CC1 (stereo unspecified),0.247,0.598
OCCN1CCN(Cc2ccc(F)cc2F)CC1,0.26,0.618
CN(CCc1ccccc1)Cc1cccc(O)c1,0.265,0.604
CC1(C)CC2CC(C)(CN2Cc2cccnc2)C1 (stereo unspecified),0.24,0.61

Compound,"plate-normalized OD600 growth (temperature: 15°C, 48 h)","plate-normalized OD600 growth (temperature: 37°C, 24 h)"
CN(C)c1ccc(CN2CCN(c3ccc(F)cc3)CC2)cc1,0.253,0.628
OCCN1CCN(Cc2ccc(Cl)c(Cl)c2)CC1,0.234,0.611
COc1ccccc1N1CCN(Cc2ccc(N(C)C)cc2)CC1,0.234,0.615
Cc1ccc2c(c1)C1CN(C)CCC1N2 (stereo unspecified),0.227,0.61
OCCN1CCN(Cc2ccc(F)c(F)c2)CC1,0.247,0.612
COc1ccc2c(c1)c(CCN)c(C)n2Cc1ccccc1,0.263,0.613
CCCN1CCC(NC(C)CCCC(C)(C)O)CC1 (stereo unspecified),0.296,0.653
Cc1ccccc1-n1c(/C=C/c2ccccc2[N+](=O)[O-])nc2ccccc2c1=O,0.239,0.651
COC1CCCCC1NC1CCCCC1 (stereo unspecified),0.234,0.614
CCOc1ccc2c(c1)c(C(=O)O)c(C)n2C,0.262,0.625
CC(C)(C)C1CCC(N2CCOCC2)CC1 (stereo unspecified),0.242,0.605
Cc1[nH]c2ccccc2c1CCCNC1CCCCC1,0.264,0.644
COc1ccc(Br)cc1CN1CCN(C)CC1,0.26,0.617
O=C1NC(=O)C(c2ccccc2)(c2ccccc2)C(=O)N1,0.266,0.666
O=C(CN1CCCC1=O)NCCc1ccccc1,0.261,0.645
CCCN1CCC(NCC2CCCO2)CC1 (stereo unspecified),0.264,0.665
COc1ccc(N=C(C)c2c(O)[nH]c(=O)[nH]c2=O)cc1,0.242,0.607
OCCN1CCN(Cc2ccc(Cl)cc2Cl)CC1,0.23,0.624
Cc1cccc(CN2CCN(c3ccccc3)CC2)c1,0.223,0.663
O=c1cccc2n1C[C@H]1C[C@H]2CN(Cc2cccc(Cl)c2Cl)C1,0.28,0.659
COc1cccc(CN2CCN(c3cccc(Cl)c3)CC2)c1,0.26,0.623

Compound,"plate-normalized OD600 growth (temperature: 15°C, 48 h)","plate-normalized OD600 growth (temperature: 37°C, 24 h)"
OCCN1CCN(Cc2cccc(F)c2)CC1,0.245,0.648
COc1cc(CN2C[C@@H]3C[C@@H](C2)c2cccc(=O)n2C3)cc(I)c1O,0.263,0.634
Fc1ccc(CN2CCN(c3cccc(Cl)c3)CC2)c(F)c1,0.253,0.623
CC1CCCC(N2CC(C)OC(C)C2)C1 (stereo unspecified),0.255,0.604
N#CC(/C=C/c1ccccc1)N1CCOCC1 (stereo unspecified),0.236,0.614
CN1CCN(c2ccc([N+](=O)[O-])c(N3CCOCC3)c2)CC1,0.266,0.627
CCOc1cc(/C=C/[N+](=O)[O-])ccc1O,0.209,0.585
Cc1cccc(C)c1-n1nnnc1C1(Nc2cccc(O)c2)CCCCC1,0.252,0.643
OC(c1ccccc1)(c1ccccc1)c1cnc[nH]1,0.262,0.618
COc1cccc(CNCCc2ccccc2F)c1,0.236,0.608
O=[N+]([O-])c1ccc(N2CCN(Cc3c(F)cccc3Cl)CC2)cc1,0.238,0.627
COc1ccc(C(=O)CCN(C)C)cc1F,0.245,0.616
COc1ccc(N2CCN(Cc3ccc(N(C)C)cc3)CC2)cc1,0.271,0.65
C/C(=C\c1ccc(N(C)C)cc1)[N+](=O)[O-],0.244,0.633
O=C(Cc1ccccc1)NC(Cc1ccc(Cl)cc1)C(=O)O (stereo unspecified),0.247,0.611
Cc1ccccc1CN1CCN(c2ccc([N+](=O)[O-])cc2)CC1,0.23,0.605
O=[N+]([O-])c1ccc(NCCOc2ccccc2F)c2ncccc12,0.242,0.607
Fc1ccc(N2CCN(CCc3ccccc3)CC2)cc1,0.24,0.615
COc1ccc(CN2C[C@@H]3C[C@@H](C2)c2cccc(=O)n2C3)cc1Br,0.266,0.634
Fc1ccc(CCNCc2ccc3c(c2)OCO3)cc1,0.257,0.619

# 22 entries from above, bar-delimited.
Compound | plate-normalized OD600 growth (temperature: 15°C, 48 h) | plate-normalized OD600 growth (temperature: 37°C, 24 h)
COc1ccc(N=C(C)c2c(O)[nH]c(=O)[nH]c2=O)cc1 | 0.242 | 0.607
OCCN1CCN(Cc2ccc(Cl)cc2Cl)CC1 | 0.23 | 0.624
Cc1cccc(CN2CCN(c3ccccc3)CC2)c1 | 0.223 | 0.663
O=c1cccc2n1C[C@H]1C[C@H]2CN(Cc2cccc(Cl)c2Cl)C1 | 0.28 | 0.659
COc1cccc(CN2CCN(c3cccc(Cl)c3)CC2)c1 | 0.26 | 0.623
OCCN1CCN(Cc2cccc(F)c2)CC1 | 0.245 | 0.648
Fc1ccc(CN2CCN(c3cccc(Cl)c3)CC2)c(F)c1 | 0.253 | 0.623
CC1CCCC(N2CC(C)OC(C)C2)C1 (stereo unspecified) | 0.255 | 0.604
N#CC(/C=C/c1ccccc1)N1CCOCC1 (stereo unspecified) | 0.236 | 0.614
CN1CCN(c2ccc([N+](=O)[O-])c(N3CCOCC3)c2)CC1 | 0.266 | 0.627
Cc1cccc(C)c1-n1nnnc1C1(Nc2cccc(O)c2)CCCCC1 | 0.252 | 0.643
OC(c1ccccc1)(c1ccccc1)c1cnc[nH]1 | 0.262 | 0.618
COc1cccc(CNCCc2ccccc2F)c1 | 0.236 | 0.608
O=[N+]([O-])c1ccc(N2CCN(Cc3c(F)cccc3Cl)CC2)cc1 | 0.238 | 0.627
COc1ccc(C(=O)CCN(C)C)cc1F | 0.245 | 0.616
COc1ccc(N2CCN(Cc3ccc(N(C)C)cc3)CC2)cc1 | 0.271 | 0.65
C/C(=C\c1ccc(N(C)C)cc1)[N+](=O)[O-] | 0.244 | 0.633
O=C(Cc1ccccc1)NC(Cc1ccc(Cl)cc1)C(=O)O (stereo unspecified) | 0.247 | 0.611
Cc1ccccc1CN1CCN(c2ccc([N+](=O)[O-])cc2)CC1 | 0.23 | 0.605
Fc1ccc(N2CCN(CCc3ccccc3)CC2)cc1 | 0.24 | 0.615
COc1ccc(CN2C[C@@H]3C[C@@H](C2)c2cccc(=O)n2C3)cc1Br | 0.266 | 0.634
Fc1ccc(CCNCc2ccc3c(c2)OCO3)cc1 | 0.257 | 0.619
